Assay [1] has as its target human complement component C3 (native) (human) (UniProt P01024). In words: co-IP.
Assay [2] deals with SARS-CoV-2 ORF8 protein, flag-tagged codon-optimized construct (SARS-CoV-2) (UniProt P0DTC8). In words: co-IP.

Sequences of proteins named here, by UniProt entry; tags and fusion partners are left off. A change or cut given only in a name is not applied to a line headed by its entry. Residues count along the entry.
UniProt P01024: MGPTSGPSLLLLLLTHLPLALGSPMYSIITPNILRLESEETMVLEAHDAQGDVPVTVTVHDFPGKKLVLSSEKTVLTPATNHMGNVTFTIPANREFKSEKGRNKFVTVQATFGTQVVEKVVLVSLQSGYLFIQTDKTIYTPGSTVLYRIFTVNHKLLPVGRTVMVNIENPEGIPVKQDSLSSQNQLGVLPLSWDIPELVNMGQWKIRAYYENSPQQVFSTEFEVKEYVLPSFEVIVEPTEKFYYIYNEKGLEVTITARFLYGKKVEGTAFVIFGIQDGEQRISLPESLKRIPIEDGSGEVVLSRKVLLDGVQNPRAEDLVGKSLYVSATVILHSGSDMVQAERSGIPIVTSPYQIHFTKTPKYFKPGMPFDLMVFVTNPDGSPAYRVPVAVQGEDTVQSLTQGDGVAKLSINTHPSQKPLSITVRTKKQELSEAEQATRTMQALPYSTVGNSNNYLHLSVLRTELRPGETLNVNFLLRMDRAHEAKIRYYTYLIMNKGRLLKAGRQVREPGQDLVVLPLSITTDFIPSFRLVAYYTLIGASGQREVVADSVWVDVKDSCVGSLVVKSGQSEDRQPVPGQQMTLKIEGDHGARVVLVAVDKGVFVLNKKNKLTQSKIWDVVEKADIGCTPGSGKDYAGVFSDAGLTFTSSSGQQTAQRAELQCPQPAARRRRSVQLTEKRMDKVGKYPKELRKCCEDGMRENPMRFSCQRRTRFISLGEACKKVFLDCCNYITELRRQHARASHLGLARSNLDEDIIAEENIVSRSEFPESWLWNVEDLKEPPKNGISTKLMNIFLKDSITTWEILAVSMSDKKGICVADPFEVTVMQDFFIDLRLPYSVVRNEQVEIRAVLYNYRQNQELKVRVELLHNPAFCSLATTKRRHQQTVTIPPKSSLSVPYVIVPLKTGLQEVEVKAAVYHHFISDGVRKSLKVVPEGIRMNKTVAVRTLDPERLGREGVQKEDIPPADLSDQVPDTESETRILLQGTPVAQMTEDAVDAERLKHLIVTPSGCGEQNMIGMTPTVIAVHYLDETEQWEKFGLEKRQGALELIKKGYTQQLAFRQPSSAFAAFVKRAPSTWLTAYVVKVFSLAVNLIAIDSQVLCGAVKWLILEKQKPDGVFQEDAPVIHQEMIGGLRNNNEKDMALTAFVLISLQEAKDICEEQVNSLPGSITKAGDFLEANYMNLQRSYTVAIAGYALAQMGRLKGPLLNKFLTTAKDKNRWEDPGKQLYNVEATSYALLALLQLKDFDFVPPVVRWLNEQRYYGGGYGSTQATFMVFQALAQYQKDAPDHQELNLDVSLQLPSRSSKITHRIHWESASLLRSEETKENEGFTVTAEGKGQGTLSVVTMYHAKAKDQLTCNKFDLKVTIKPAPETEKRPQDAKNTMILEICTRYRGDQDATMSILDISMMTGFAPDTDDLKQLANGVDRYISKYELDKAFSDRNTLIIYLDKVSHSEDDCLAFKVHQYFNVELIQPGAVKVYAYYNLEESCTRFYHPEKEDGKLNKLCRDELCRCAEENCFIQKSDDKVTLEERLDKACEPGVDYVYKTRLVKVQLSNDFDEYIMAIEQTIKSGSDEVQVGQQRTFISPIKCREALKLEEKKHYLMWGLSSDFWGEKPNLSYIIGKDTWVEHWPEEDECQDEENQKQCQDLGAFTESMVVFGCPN
UniProt P0DTC8, residues 18-121: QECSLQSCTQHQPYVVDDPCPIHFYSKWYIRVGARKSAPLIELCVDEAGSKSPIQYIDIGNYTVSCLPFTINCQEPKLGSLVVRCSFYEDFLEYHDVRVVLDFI

Results are given in words; binding and its absence hold for the method and conditions named. In cells and extracts the contact can be indirect. Some results given as binding are weak or reduced against the parent protein; the word gives no strength.

For the substance “SARS-CoV-2 ORF8 protein, flag-tagged codon-optimized construct (from UniProt P0DTC8 18-121)”, the binding entry in assay [1] was “binds”.

On to “human complement C3b (from UniProt P01024 23-667; P01024 749-1663)”, for which the binding entry in assay [2] is “binds”.

For the substance “human complement C3c (from UniProt P01024 23-667; P01024 749-954; P01024 1321-1663) (domain or fragment)”, the binding result in assay [2] is “binds”.

Take “human complement component C3 (native) (from UniProt P01024 23-667; P01024 672-1663)”: the binding result in assay [2] is on record as “binds”.
